Test results from the supplement of paper PMC3682954.
Several values for one entry are separate records, joined by “and”; a condition that tells them apart may be missing. Equal values may be shown once. Where a name gives a salt, the structure may show the parent alone. ± gives the standard deviation of the averaged measurements. Some of the results follow. Single values are uncertain, as repeats are few or missing.

Tested on: RAW 264.7
Test: HMGB1-induced TNF-alpha production relative to HMGB1-stimulated control; higher = more TNF-alpha secretion (less inhibition)
Settings: stimulus: HMGB1 5 ug/ml, 18 h
[1] = compound concentration: 1 ug/ml

Row | SMILES | HMGB1-induced TNF-alpha production [1] [%] | HMGB1-induced TNF-alpha production (compound concentration: 3 uM)
1 | CO[C@H]1[C@H](O)[C@@H](O)[C@@H](O)[C@H](O)[C@@H]1O [D-Pinitol ;  3-O-Methyl-D-chiro-inositol] | 66.1 | 
2 | CN[C@@H]1[C@H](O[C@H]2[C@H](O[C@H]3[C@H](O)[C@@H](O)[C@H](NC(=N)N)[C@@H](O)[C@@H]3NC(=N)N)O[C@@H](C)[C@]2(O)CO)O[C@@H](CO)[C@H](O)[C@H]1O [Dihydrostreptomycin sulfate] |  | 93.8%
3 | CN[C@@H]1[C@H](O[C@H]2[C@H](O[C@H]3[C@H](O)[C@@H](O)[C@H](NC(=N)N)[C@@H](O)[C@@H]3NC(=N)N)O[C@@H](C)[C@]2(O)CO)O[C@@H](CO)[C@H](O)[C@H]1O |  | 81%
4 | NCc1ccc(S(N)(=O)=O)cc1 |  | 96.1%
5 | NCc1ccc(S(N)(=O)=O)cc1 [Mafenide hydrochloride] |  | 106%
6 | CCc1oc2ccccc2c1C(=O)c1cc(Br)c(O)c(Br)c1 [Benzbromarone] |  | 48.6%
7 | CC/C(=C(\c1ccccc1)c1ccc(OCCN(C)C)cc1)c1ccccc1 [Tamoxifen citrate] |  | 75.7 ± 22%
8 | CC/C(=C(\c1ccccc1)c1ccc(OCCN(C)C)cc1)c1ccccc1 |  | 81.2%
9 | CC/C(=C(\c1ccccc1)c1ccc(OCCN(C)C)cc1)c1ccccc1 [Tamoxifen] |  | 79.8 ± 4.3%
10 | CCCCC[C@H](O)/C=C/[C@H]1[C@H](O)CC(=O)[C@@H]1CCCCCCC(=O)O [Prostaglandin E1] |  | 54.6%
11 | CCCCC[C@H](O)/C=C/[C@H]1[C@H](O)CC(=O)[C@@H]1CCCCCCC(=O)O [Alprostadil] |  | 48.7 ± 5.4%
12 | O=C(O)c1cccnc1C(=O)O [Quinolinic acid] |  | 111%
13 | O=C(O)c1ccccc1 |  | 99.3%
14 | CCN1CCC[C@H]1CNC(=O)c1c(O)c(Cl)cc(Cl)c1OC [Raclopride] |  | 87.9 ± 15%
15 | CN(CC[C@@H](Oc1ccc(C(F)(F)F)cc1)c1ccccc1)CC(=O)[O-].[Li+] |  | 88.3%
16 | C=CC(C)(O)CCCC(C)CCCC(C)CCCC(C)C (centres undefined) [Isophytol] | 69.3 | 
17 | CCOc1ccc(NC(C)=O)cc1 [Phenacetin] |  | 72.8%
18 | CCOc1ccc(NC(C)=O)cc1 |  | 90%
19 | CN1CCC[C@@H]1CCO[C@](C)(c1ccccc1)c1ccc(Cl)cc1 |  | 67.9%
20 | CN1CCC[C@@H]1CCO[C@](C)(c1ccccc1)c1ccc(Cl)cc1 [Clemastine fumarate] |  | 71.4 ± 11%
21 | CN1CCC[C@@H]1CCO[C@](C)(c1ccccc1)c1ccc(Cl)cc1 [Clemastine] |  | 102%
22 | O=C(c1ccc(OCCCc2c[nH]cn2)cc1)C1CC1 [Ciproxifan hydrochloride] |  | 87.5%
23 | CC(C(=O)O)c1ccc(C(=O)c2cccs2)cc1 (centres undefined) |  | 81.7%
24 | CC(C(=O)O)c1ccc(C(=O)c2cccs2)cc1 (centres undefined) [Suprofen] |  | 123%
25 | COc1cc2ncnc(Nc3ccc(F)c(Cl)c3)c2cc1OCCCN1CCOCC1 [Gefitinib] |  | 112 ± 17%
26 | O=c1ccn([C@@H]2O[C@H](COP(=O)(O)OP(=O)(O)OP(=O)(O)O)[C@@H](O)[C@H]2O)c(=O)[nH]1 [Uridine 5'-triphosphate trisodium salt hydrate] | 75.6 | 
27 | CN(C)c1ccc(C(=C2C=CC(=[N+](C)C)C=C2)c2ccc(N(C)C)cc2)cc1 |  | 74.1%

Row | SMILES | HMGB1-induced TNF-alpha production [1] [%] | HMGB1-induced TNF-alpha production (compound concentration: 3 uM)
28 | COc1ccc(CC2c3cc(OC)c(OC)cc3CC[N+]2(C)CCC(=O)OCCCCCOC(=O)CC[N+]2(C)CCc3cc(OC)c(OC)cc3C2Cc2ccc(OC)c(OC)c2)cc1OC (centres undefined) [Atracurium besylate] |  | 76%
29 | COc1ccc(CC2c3cc(OC)c(OC)cc3CC[N+]2(C)CCC(=O)OCCCCCOC(=O)CC[N+]2(C)CCc3cc(OC)c(OC)cc3C2Cc2ccc(OC)c(OC)c2)cc1OC (centres undefined) [Atracurium] |  | 67.1%
30 | COc1ccc(CC2c3cc(OC)c(OC)cc3CC[N+]2(C)CCC(=O)OCCCCCOC(=O)CC[N+]2(C)CCc3cc(OC)c(OC)cc3C2Cc2ccc(OC)c(OC)c2)cc1OC (centres undefined) |  | 97.5%
31 | CC(=O)[C@H]1CC[C@H]2[C@@H]3CC=C4C[C@@H](O)CC[C@]4(C)[C@H]3CC[C@]12C |  | 82.7%
32 | CC(=O)[C@H]1CC[C@H]2[C@@H]3CC=C4C[C@@H](O)CC[C@]4(C)[C@H]3CC[C@]12C [Pregnenolone] |  | 72 ± 7%
33 | Oc1cc2c(cc1O)[C@@H]1c3ccc(O)c(O)c3OC[C@]1(O)C2 [Hematoxylin] | 78.1 | 
34 | CCN(CCO)CCCC(C)Nc1ccnc2cc(Cl)ccc12 (centres undefined) |  | 78.2%
35 | CCCCN1CCCCC1C(=O)Nc1c(C)cccc1C (centres undefined) [Bupivacaine] |  | 82.2%
36 | CCCCN1CCCCC1C(=O)Nc1c(C)cccc1C (centres undefined) [Bupivacaine hydrochloride] |  | 65.4%
37 | CCCCN1CCCCC1C(=O)Nc1c(C)cccc1C (centres undefined) |  | 70.5%
38 | CCOC(=O)NNc1nncc2ccccc12 [Todralazine hydrochloride] |  | 81.5%
39 | CCOC(=O)NNc1nncc2ccccc12 |  | 66.2%
40 | CC(C)(C)c1ccc(C(O)CCCN2CCC(C(O)(c3ccccc3)c3ccccc3)CC2)cc1 (centres undefined) |  | 80.5%
41 | CC(C)(C)c1ccc(C(O)CCCN2CCC(C(O)(c3ccccc3)c3ccccc3)CC2)cc1 (centres undefined) [Terfenadine] |  | 94.8 ± 14%
42 | CC(COc1ccccc1)NC(C)C(O)c1ccc(O)cc1 (centres undefined) [Isoxsuprine hydrochloride] |  | 45.7%
43 | CC(COc1ccccc1)NC(C)C(O)c1ccc(O)cc1 (centres undefined) |  | 60.6%
44 | N[C@@H](Cc1ccc(O)c(I)c1)C(=O)O [3-Iodo-L-tyrosine] |  | 99.6%
45 | O=C(O)[C@H]1O[C@@H](Oc2cc3oc(-c4ccccc4)cc(=O)c3c(O)c2O)[C@H](O)[C@@H](O)[C@@H]1O [Baicalin hydrate] | 57 | 
46 | Nc1ccc(S(=O)(=O)Nc2ccccn2)cc1 [Sulfapyridine] |  | 108%
47 | Nc1ccc(S(=O)(=O)Nc2ccccn2)cc1 |  | 85.6%
48 | CO[C@H]1C[C@H](O[C@H]2[C@H](C)[C@@H](O[C@@H]3O[C@H](C)C[C@H](N(C)C)[C@H]3O)[C@@H](C)C[C@@]3(CO3)C(=O)[C@H](C)[C@@H](O)[C@@H](C)[C@@H](C)OC(=O)[C@@H]2C)O[C@@H](C)[C@@H]1O |  | 85.5 ± 3.5%
49 | O=c1[nH]c(=O)c2ccccc2o1 |  | 98.7%
50 | Nc1ncnc2c1ncn2C1CCCO1 (centres undefined) |  | 99.1%
51 | Nc1ccn([C@@H]2O[C@H](CO)[C@@H](O)[C@@H]2O)c(=O)n1 [Cytarabine] |  | 104 ± 30%
52 | Nc1ccn([C@@H]2O[C@H](CO)[C@@H](O)[C@@H]2O)c(=O)n1 [Cytosine-1-beta-D-arabinofuranoside hydrochloride] |  | 116%
53 | Nc1ccn([C@@H]2O[C@H](CO)[C@@H](O)[C@@H]2O)c(=O)n1 |  | 79.7 ± 2.2%
54 | O=C(NCCO)c1ccc2c(c1)nc(Nc1cccc(Cl)c1)c1ccncc12 [CK2 Inhibitor 2] |  | 74.2%

Row | SMILES | HMGB1-induced TNF-alpha production [1] [%] | HMGB1-induced TNF-alpha production (compound concentration: 3 uM)
55 | COc1ccnc(C[S+]([O-])c2nc3cc(OC(F)F)ccc3[nH]2)c1OC (centres undefined) |  | 96.2% and 83%
56 | COc1ccnc(C[S+]([O-])c2nc3cc(OC(F)F)ccc3[nH]2)c1OC (centres undefined) [Pantoprazole] |  | 81.5%
57 | C[N+](C)(C)[C@@H](Cc1c[nH]c(=S)[nH]1)C(=O)[O-] [Ergothioneine] |  | 89%
58 | O=c1[nH]cnc2c1ncn2[C@@H]1O[C@H](CO)[C@@H](O)[C@H]1O [Inosine] | 80 | 
59 | O=c1[nH]cnc2c1ncn2[C@@H]1O[C@H](CO)[C@@H](O)[C@H]1O |  | 94.1%
60 | CCOc1ccccc1OC(c1ccccc1)C1CNCCO1 (centres undefined) [Reboxetine mesylate] |  | 100%
61 | O=C1NC(=O)/C(=C/c2ccc3c(c2)OC(F)(F)O3)S1 |  | 71.4%
62 | OC[C@H]1O[C@@H](n2cnc3c(N[C@H]4CCC[C@@H]4O)ncnc32)[C@@H](O)C1O (stereo partly drawn) [Adenosine, N-(2-hydroxycyclopentyl)-, (1S-trans)- [CAS]] |  | 98.2%
63 | CCCCOc1cc(CC2CNC(=O)N2)ccc1OC (centres undefined) |  | 73.3% and 65.4%
64 | CC(C)Cn1c(=O)n(C)c(=O)c2[nH]cnc21 [3-Isobutyl-1-methylxanthine] |  | 112%
65 | COc1cc([C@@H]2c3cc4c(cc3[C@@H](O[C@@H]3O[C@@H]5CO[C@@H](c6cccs6)O[C@H]5[C@H](O)[C@H]3O)[C@H]3COC(=O)[C@H]23)OCO4)cc(OC)c1O |  | 86.3 ± 16%
66 | COc1ccc(-c2coc3ccc(OC4OC(COC(C)=O)C(OC(C)=O)C(OC(C)=O)C4OC(C)=O)c(OC(C)=O)c3c2=O)cc1 (centres undefined) | 59.9 | 
67 | O=c1ccc2ccccc2o1 |  | 75.6%
68 | O=c1ccc2ccccc2o1 [Coumarin] | 68.8 | 
69 | CN(C)CCCN1c2ccccc2Sc2ccc(Cl)cc21 |  | 74.6%
70 | CN(C)CCCN1c2ccccc2Sc2ccc(Cl)cc21 [Chlorpromazine hydrochloride] |  | 62.8 ± 6.8%
71 | CN(C)CCCN1c2ccccc2Sc2ccc(Cl)cc21 [Chlorpromazine] |  | 83.2%
72 | Cc1ccsc1/C=C/C1=NCCCN1C [Morantel tartrate] |  | 70.6%
73 | Cc1ccsc1/C=C/C1=NCCCN1C |  | 80.2%
74 | CCCCCCCCCCCCCCCCOP(=O)([O-])OCC[N+](C)(C)C |  | 89.2%
75 | CCCCCCCCCCCCCCCCOP(=O)([O-])OCC[N+](C)(C)C [Miltefosine] |  | 97.1%
76 | CC(Cc1ccc(O)c(O)c1)(NN)C(=O)O (stereo not drawn) [S-(-)-Carbidopa] |  | 88.7%
77 | CN(C)c1ccc(O)c2c1C[C@H]1C[C@H]3[C@H](N(C)C)C(O)=C(C(N)=O)C(=O)[C@@]3(O)C(O)=C1C2=O [Minocycline hydrochloride] |  | 102 ± 20%
78 | CN(C)c1ccc(O)c2c1C[C@H]1C[C@H]3[C@H](N(C)C)C(O)=C(C(N)=O)C(=O)[C@@]3(O)C(O)=C1C2=O |  | 93.7%
79 | CN(C)c1ccc(O)c2c1C[C@H]1C[C@H]3[C@H](N(C)C)C(O)=C(C(N)=O)C(=O)[C@@]3(O)C(O)=C1C2=O [Minocycline] |  | 86.1%

Reformatted: entries from further up
Row	SMILES	HMGB1-induced TNF-alpha production [1] [%]	HMGB1-induced TNF-alpha production (compound concentration: 3 uM)
25	COc1cc2ncnc(Nc3ccc(F)c(Cl)c3)c2cc1OCCCN1CCOCC1 [Gefitinib]		112 ± 17%
26	O=c1ccn([C@@H]2O[C@H](COP(=O)(O)OP(=O)(O)OP(=O)(O)O)[C@@H](O)[C@H]2O)c(=O)[nH]1 [Uridine 5'-triphosphate trisodium salt hydrate]	75.6	
27	CN(C)c1ccc(C(=C2C=CC(=[N+](C)C)C=C2)c2ccc(N(C)C)cc2)cc1		74.1%
28	COc1ccc(CC2c3cc(OC)c(OC)cc3CC[N+]2(C)CCC(=O)OCCCCCOC(=O)CC[N+]2(C)CCc3cc(OC)c(OC)cc3C2Cc2ccc(OC)c(OC)c2)cc1OC (centres undefined) [Atracurium besylate]		76%
29	COc1ccc(CC2c3cc(OC)c(OC)cc3CC[N+]2(C)CCC(=O)OCCCCCOC(=O)CC[N+]2(C)CCc3cc(OC)c(OC)cc3C2Cc2ccc(OC)c(OC)c2)cc1OC (centres undefined) [Atracurium]		67.1%
